Source: PubChem BioAssay AID2685 (National Center for Advancing Translational Sciences (NCATS), 2010)
The whole screen tested about 320,000 compounds, of which about 2,100 (0.66%) were called active. The inconclusive results got no clear call from the source; some entries with a clear call stand among them for comparison. The call rests on the fitted dose curve; in most records, active means well fitted inhibition curve with a large enough effect in the signal ratio, with a control signal flat (not every such curve was filed as active); inconclusive means small, poorly fitted or top-dose-only effect, or effect the other way, or a change in a side signal; inactive means flat fitted curve, though single readings scatter; the % refers to the signal ratio. Potencies of inconclusive entries are doubtful fits and often do not repeat.
On the % scale 0 is the no-effect control and ±100 the full control effect; potency means the concentration at half of the fitted maximal effect.

Experiment: qHTS Assay for Lipid Storage Modulators in Drosophila S3 Cells
Conditions: BODIPY lipid droplet fluorescence, 18-24 h, cells fed with added oleic acid; lipid storage change, negative = inhibition: at 46.1 µM (top of the series) unless noted
Summary of the method: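 Drosophila S3 cells got compounds at several concentrations plus oleic acid (400 uM solution). Laser-scanning cytometry with 488 nm excitation read lipid droplets at 500-530 nm and cells at 575-640 nm. Percent activity was relative to 20 uM Triacsin C.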
With `COc1ccc(NS(=O)(=O)c2cc(NC(=O)/C=C/c3cccs3)ccc2N2CCOCC2)cc1` the lipid storage change, negative = inhibition was inconclusive: 2.39%.
For `CCOc1ccc(NC(=O)NNC(=O)c2ccc3ccccc3c2O)cc1`, the lipid storage change, negative = inhibition was inconclusive: 9.6%.
In the case of `O=C(NC(=S)NNC(=O)c1ccccc1O)c1ccc(F)cc1`, the lipid storage change, negative = inhibition is reported as inconclusive: -35.8%.
For `CC(C)N(C(=O)COC(=O)c1cncc(Br)c1)C(C)C`, the lipid storage change, negative = inhibition was inconclusive: -43.3%.
With `COc1ccc(Nc2nc(N3CCCCC3)nc3ccccc23)c(OC)c1` the lipid storage change, negative = inhibition was inconclusive: -41.7%.
In the case of `COc1cc2c(cc1OC)-c1nnc(-c3ccco3)n1C1(CCCC1)C2`, the lipid storage change, negative = inhibition is reported as inconclusive: -25.9%.
With `Cc1cc(C)n2nc[n+](C)c2n1` the lipid storage change, negative = inhibition was inconclusive: 24%.
For `Cc1ccc(NC(=S)NC(=O)Cc2ccccc2)c(O)c1`, the Potency was inconclusive: 3.66 µM [activator, single point].
For `Cc1ccccc1-n1nc(SCC(=O)O)sc1=S`, the lipid storage change, negative = inhibition was inconclusive: -35.4%.
With `CCn1c(CNC(=O)c2cccnc2)cc2ccccc21` the lipid storage change, negative = inhibition was inconclusive: 20.8%.
For `CCCCC(NC(=O)Cc1c(C)c2cc3c4c(oc3cc2oc1=O)CCCC4)C(=O)O` (centres undefined), the Potency was inconclusive: 0.651 µM [falling, partial curve, poor fit].
In the case of `CC1CCCCC1NC(=S)Nc1ccc(Cl)cc1Cl` (centres undefined), the lipid storage change, negative = inhibition is reported as inconclusive: -32.5% [at 0.00295 µM].
In the case of `O=C(C1CCCCC1)N(Cc1ccccc1)c1ccccn1`, the lipid storage change, negative = inhibition is reported as inconclusive: 23%.
In the case of `CC1(C)CC(NC(=O)c2cccc(S(=O)(=O)N(Cc3ccccc3)c3ccccc3)c2)CC(C)(C)N1`, the lipid storage change, negative = inhibition is reported as inconclusive: 1.6%.
With `COc1ccc(NC(=S)N2CCCCC2c2cccnc2)cc1` (centres undefined) the lipid storage change, negative = inhibition was inconclusive: -0.569%.
With `CCCCNS(=O)(=O)c1ccc2nc(SCC(=O)Nc3cc(C)cc(C)c3)[nH]c2c1` the lipid storage change, negative = inhibition was inconclusive: 19%.
For `CCOc1ccc2nc(SC(C)C(N)=O)[nH]c2c1` (centres undefined), the lipid storage change, negative = inhibition was inconclusive: -8.74%.
In the case of `C=CCOc1ccc2c(CC)cc(=O)oc2c1C`, the lipid storage change, negative = inhibition is reported as inconclusive: 31.4%.
In the case of `CN(Cc1ccccc1Cl)C(=O)C1CC(=O)N(c2ccc3c(c2)OCCO3)C1` (centres undefined), the lipid storage change, negative = inhibition is reported as “inconclusive”.
For `O=C1C2C3C=CC(C2C(=O)N1CCO)C1C(=O)N(CCO)C(=O)C31` (centres undefined), the lipid storage change, negative = inhibition was inconclusive: -12%.
For `CC(C)c1ccc(S(=O)(=O)N2CCC3(CC2)OCCO3)cc1`, the Potency was inconclusive: 29.1 µM [falling, single point].
In the case of `CCOC(=O)c1c(C=O)c(C)n(Cc2ccc(C)cc2)c1C`, the Potency is reported as inconclusive: 23.1 µM [activator, single point].
With `CC(=O)Oc1ccc(/C=C2/CCc3ccccc3C2=O)cc1` the lipid storage change, negative = inhibition was inconclusive: -7.34%.
In the case of `CCOC(=O)c1cnc2nc(C)nn2c1N`, the Potency is reported as inconclusive: 29.1 µM [falling, single point].
For `O=C(O)C1(NS(=O)(=O)c2ccc(F)c(Cl)c2)CCCCC1`, the lipid storage change, negative = inhibition was inconclusive: -4.19%.
With `O=C(NCCN1CCCC1)c1ccc(CS(=O)(=O)c2c(Cl)cccc2Cl)o1` the lipid storage change, negative = inhibition was inconclusive: -40.7%.
For `Cc1cccc(-n2cc(CNCCN3CCOC3=O)c(-c3cccc(F)c3)n2)c1`, the lipid storage change, negative = inhibition was inconclusive: 14.6%.
With `O=S(=O)(c1ccc(Cl)cc1)n1c(Cc2ccccc2)nc2ccccc21` the lipid storage change, negative = inhibition was inconclusive: 9.97%.
For `CCOC(=O)c1sc(NC(=O)CSc2nncn2C)nc1C`, the lipid storage change, negative = inhibition was inconclusive: 3.98%.
With `CS(=O)(=O)N1CCC(C(=O)Nc2ccc(F)c(Cl)c2)CC1` the lipid storage change, negative = inhibition was inconclusive: -14.7%.
In the case of `COC(=O)CCN(C(=O)c1cc([N+](=O)[O-])cc([N+](=O)[O-])c1)c1ccccn1`, the lipid storage change, negative = inhibition is reported as inconclusive: 90.8%.
For `N#CCSc1nc(-c2ccccc2)c2cc(Cl)ccc2n1`, the lipid storage change, negative = inhibition was inconclusive: -48%.
For `CC(C)C[C@H]1CN=C(Nc2ccccc2)N1CCCCc1ccccc1`, the Potency was inconclusive: 29.1 µM [falling, single point].
For `COc1ccc(C(OC(=O)c2ccco2)C(=O)NC2CCCC2)cc1OC` (centres undefined), the lipid storage change, negative = inhibition was inconclusive: -67.6%.
With `CCN(CC)c1ccc(/C=N/N2CC(=O)NC2=S)cc1` the Potency was active: 0.291 µM.
For `O=C(N/N=C/c1cc(Cl)cc([N+](=O)[O-])c1O)c1cccc(S(=O)(=O)N2CCOCC2)c1`, the lipid storage change, negative = inhibition was inconclusive: -8.91%.
With `CCCCNC(=O)c1sc2nc(C)cc(COC)c2c1-n1cccc1` the lipid storage change, negative = inhibition was inconclusive: -22.7%.
For `C/C(=N\OCc1ccc(C#N)cc1)c1cc2ccccc2o1`, the Potency was inconclusive: 16.4 µM [activator, partial curve].
For `CC(C)Oc1ccc(S(=O)(=O)N2CCOCC2)cc1NC(=O)CN1C(=O)NC2(CCCC2)C1=O`, the lipid storage change, negative = inhibition was inconclusive: 71.8%.
In the case of `O=C(COC(=O)C1=Cc2ccccc2OC1)NCc1ccccc1`, the lipid storage change, negative = inhibition is reported as “inconclusive”.
With `CC(=O)Nc1ccc(NC(=O)COc2ccc(S(=O)(=O)N3CCCC3)cc2)cc1` the lipid storage change, negative = inhibition was inconclusive: 71.1%.
In the case of `COCc1c(C(=O)N/N=C(/C)c2cccs2)nnn1-c1nonc1N`, the lipid storage change, negative = inhibition is reported as inconclusive: -133%.
In the case of `O=C(CN1CCOCC1)NCc1ccccc1Cl`, the lipid storage change, negative = inhibition is reported as inconclusive: 142%.
With `O=C(COC(=O)/C=C/c1ccc(F)cc1)NC1CCCC1` the lipid storage change, negative = inhibition was “inconclusive”.
In the case of `CCOc1ccc(S(=O)(=O)n2cnc3ccccc32)cc1`, the lipid storage change, negative = inhibition is reported as inconclusive: 20.7%.
In the case of `O=C(O)c1cc(C(F)(F)F)nc2c(C(F)(F)F)cccc12`, the Potency is reported as inconclusive: 16.4 µM [falling, partial curve].
For `CC1CCN(CCCNC(=O)c2cc3sccc3n2C)CC1`, the lipid storage change, negative = inhibition was inconclusive: 47.4%.
In the case of `O=C(COC(=O)CCNS(=O)(=O)c1ccccc1F)Nc1nnc(-c2ccccc2)o1`, the lipid storage change, negative = inhibition is reported as “inconclusive”.
For `CCOC(=O)c1c(NC(=O)CC2SC(N)=NC2=O)sc2c1CCC(C)C2` (centres undefined), the lipid storage change, negative = inhibition was inconclusive: -7.79%.
With `O=C(NCc1nnnn1-c1ccc(F)c(F)c1)c1ccc2ccccc2c1` the lipid storage change, negative = inhibition was inconclusive: -24% [at 0.0737 µM].
For `COc1ccc(-c2nc3scc(-c4ccccc4)n3n2)cc1`, the Potency was inconclusive: 1.64 µM [activator, full curve].
In the case of `O=C1C2ON(c3ccccc3)C(c3ccccc3F)C2C(=O)N1c1ccccc1` (centres undefined), the lipid storage change, negative = inhibition is reported as inconclusive: 6.32%.
With `O=S(=O)(NCc1ccc2c(c1)OCO2)c1c(F)cc(F)cc1Br` the lipid storage change, negative = inhibition was inconclusive: -77%.
With `O=C(O)c1ccccc1-c1ccccc1C(=O)Nc1cccc(-c2nc3ccccc3o2)c1` the “lipid storage change, negative = inhibition” value was inactive: 4.74%.
